Primary screen of a compound library

Source: ChEMBL document CHEMBL3988442, “University of Dundee, Small-Polar-MMV Screening Library” (2021).

Mtb growth Cornell: 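Whole-cell assay for inhibitors of Mycobacterium tuberculosis growth, labelled Cornell in the record; the read-out is not stated. The concentration is filed as 10 mM, unlikely as a test dose, so the dose is not known. Higher means stronger inhibition (inferred from two other growth screens of the library). Of about 53,000 compounds tested this way, about 900 (1.7%) reached 50% or more in at least one test.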
Mtb heat-shock: 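Assay on Mycobacterium tuberculosis, filed only as a heat shock assay from Cornell; the read-out is not stated. The concentration is filed as 10 mM, unlikely as a test dose, so the dose is not known. The record gives no direction; compounds that gave an IC50 in retests scored well above the rest, so higher reads as stronger inhibition. About 69,000 compounds were tested under these conditions; 1.4% (about 930) showed 50% or more at least once.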

Values are the deposited “Percent Effect”, in %.
The controls that fix the scale are not given in the record; negative values are as filed.
The compounds are a random part of those screened.
A dash means the value is not listed here; it may have been measured.

| structure | Mtb growth Cornell | Mtb heat-shock |
|---|---|---|
| `CC(C)CCN1CC2(CCCN(C(=O)CNC(=O)N(C)C)C2)CCC1=O` (stereo unspecified) | - | 7.481 |
| `CCc1nnsc1C(=O)N1CCCC(COc2ccc(F)cc2)C1` (stereo unspecified) | 40.79 | 13.27 |
| `O=C(c1cc[nH]n1)N1CCC(c2cc(Nc3ccccn3)n[nH]2)CC1` | 2.015 | 4.568 |
| `O=c1[nH]c2nc(N3CCSCC3)ncc2c(=O)n1-c1ccc(F)cc1` | -1.613 | -3.687 |
| `CCS(=O)(=O)CCSc1cccc(C#N)c1` | - | -7.685 |
| `O=C(O)c1ccccc1-c1c(-c2ccccc2)ncn1CC1CCCO1` (stereo unspecified) | 12.17 | -18.34 |
| `Cc1c[nH]c(CN2CCOC(c3ccc(Cl)c(Cl)c3)C2)c(C)c1=O` (stereo unspecified) | -25.74 | -3.089 |
| `O=C(c1ccc(Cl)cc1)N1CCn2c(nn(-c3ccncc3)c2=O)C1` | - | -42.63 |
| `CC(C)Oc1ccc(CNC(=O)NCC(C)(C)C(N)=O)cc1F` | - | -6.522 |
| `O=C(O)C(F)(F)F.[H][C@@]12COC[C@]1(CN(C)C)CN(C(=O)Cc1ccccc1C)C2` | 16.73 | -21.06 |
| `CCc1ccc2c(c1)C(CCNC(=O)CSC(F)(F)F)C(=O)N2` (stereo unspecified) | 19.02 | 14.59 |
| `[H][C@]12CN(Cc3ccc(C)c(C)c3)CC[C@@]1(O)CCN(S(=O)(=O)N(C)C)C2` | 1.062 | -1.386 |
| `c1ccc(OCc2cscn2)c(CNC2CCc3ncnn3C2)c1` (stereo unspecified) | - | 9.951 |
| `c1cnc(NCc2noc3c2CN(C2CCOC2)CC3)nc1` (stereo unspecified) | 4.401 | -20.88 |
| `CCSc1ncc(CN2CCN(c3nc(C)cnc3C)CC2)cn1` | 6.345 | -17.46 |
| `CCn1nc2c(cc1=O)CN(Cc1nc(C)c(C)o1)CC2` | 12.32 | 0.4003 |
| `Cc1ccc(-c2nc3cc(S(=O)(=O)N4CCCC4)ccc3n2C)o1` | 2.587 | 10.23 |
| `O=C(O)C1(Oc2cccc(F)c2)CCN(C2CCOCC2)CC1` | 22.77 | 1.505 |
| `O=C(CCn1cccn1)NCCOc1cccc(Cl)c1` | 12.8 | 20.46 |
| `CSc1ccccc1NC(=O)CCN1CCC(C(=O)N(C)C)CC1` | - | 3.439 |
| `[H][C@]12CNC[C@@]1(C(=O)NCCS(=O)(=O)CC)CN(C1CCCC1)C2` | 20.46 | 8.312 |
| `CC(C)NC(=O)CNC(C)c1c(F)cccc1Cl` (stereo unspecified) | 4.795 | -17.15 |
| `O=C(COc1coc(CN2CCCCC2)cc1=O)c1ccccc1` | -5.787 | -9.381 |
| `COCCn1cncc1CN1CCCC(C(=O)Cc2ccccc2)C1` (stereo unspecified) | 20.8 | 2.668 |
| `Cc1n[nH]c(C)c1NC(=O)CN1CCCC1c1noc(C(C)C)n1` (stereo unspecified) | -26.98 | -21.76 |
| `O=C(NC1CC1)c1cccc(S(=O)(=O)NCCc2nc(C3CC3)no2)c1` | -10.72 | 2.933 |
| `CCC(CNC(=O)OC)(OC)c1ccccc1` (stereo unspecified) | -1.773 | 8.069 |
| `Cc1cc(I)c2c(c1)C(=O)C(CN1CCCC1)(CN1CCCC1)CO2` | 14.6 | -3.183 |
| `C[C@H](NC(=O)C1(N(C)Cc2ccccc2)Cc2ccccc2C1)C(N)=O` | 20.77 | 9.122 |
| `CN(C(=O)c1cccc2[nH]ncc12)C1CCN(c2ccccn2)CC1` | - | -12.98 |
| `[H][C@@]12CN(C(=O)c3cccn3C)C[C@]1([H])OCCN2Cc1csc(C)n1` | 13.13 | 5.465 |
| `Cc1cnn(CCNCc2csc(COc3ccccc3)n2)c1` | 79.25 | 103.7 |
| `Cn1ccc(NC(=O)NC2CCCN(c3ccccc3Cl)C2=O)n1` (stereo unspecified) | -6.107 | 10.34 |
| `COc1cc(C(C)=O)ccc1SCC(=O)Nc1cc(C)n[nH]1` | 22.31 | 15.2 |
| `CN1CCC(N(CCc2ccccc2)C(=O)c2ccoc2)CC1` | 22.79 | 10.54 |
| `O=C(O)C(F)(F)F.[H][C@@]12COC[C@]1(COC)CN(Cc1ccc3c(c1)OCO3)C2` | 8.174 | -2.808 |
| `Cc1n[nH]c(C)c1CNc1ccc(-c2nc(C3CC3)no2)cn1` | 34.68 | 16.63 |
| `Cc1ncc2c(n1)CN(Cc1nc(-c3cccs3)no1)CC2` | -6.861 | -22.91 |
| `CCN1CCC(c2nnc(CN3CCCC3)n2C2CC2)CC1` | - | -2.783 |
| `COc1cccc(C(=O)N2CCCC(c3cc(C)[nH]n3)C2)c1OC` (stereo unspecified) | -22.31 | 4.07 |
| `Cn1c(C(F)(F)F)nn(CCNC(=O)c2ccccn2)c1=O` | 11.14 | 9.253 |
| `CN(C)CC(=O)N1CCCC1c1cncc(Oc2ccc(F)cc2)n1` (stereo unspecified) | -22.78 | -28.05 |
| `Cc1ccc(-c2ncc(CN3CCOC(c4ccco4)C3)s2)o1` (stereo unspecified) | 16.62 | 11.55 |
| `Cc1cccc(NC(=O)N2CCCn3cnc(CN(C)C(C)C)c3C2)c1.O=C(O)C(F)(F)F` | - | -43.51 |
| `CSC(C)C(=O)N(C)C1CCN(c2ccc(Cl)cc2)CC1` (stereo unspecified) | 18.23 | -15.09 |
| `CC1CCC(NS(=O)(=O)CC(=O)NC2(C(N)=O)CCCC2)CC1` (stereo unspecified) | -11.11 | 14.3 |
| `COc1ccccc1-n1nc(-c2ccco2)n(CC(=O)NC2CC2)c1=O` | -32.99 | 4.277 |
| `CN(Cc1ccc(-n2ccnc2)cc1)CC1CCCN1c1cccnn1` (stereo unspecified) | - | -13.71 |

Some entries from above, unchanged:

For c1cnc(NCc2noc3c2CN(C2CCOC2)CC3)nc1 (stereo unspecified) the result was Mtb growth Cornell: 4.401%; Mtb heat-shock: -20.88%.
For CSc1ccccc1NC(=O)CCN1CCC(C(=O)N(C)C)CC1 the result was Mtb heat-shock: 3.439%.
For C[C@H](NC(=O)C1(N(C)Cc2ccccc2)Cc2ccccc2C1)C(N)=O the result was Mtb growth Cornell: 20.77%; Mtb heat-shock: 9.122%.
For CN1CCC(N(CCc2ccccc2)C(=O)c2ccoc2)CC1 the result was Mtb growth Cornell: 22.79%; Mtb heat-shock: 10.54%.
For Cc1n[nH]c(C)c1CNc1ccc(-c2nc(C3CC3)no2)cn1 the result was Mtb growth Cornell: 34.68%; Mtb heat-shock: 16.63%.
For CCC(CNC(=O)OC)(OC)c1ccccc1 (stereo unspecified) the result was Mtb growth Cornell: -1.773%; Mtb heat-shock: 8.069%.